{
  "source": "PubChem BioAssay AID2685",
  "about": "(National Center for Advancing Translational Sciences (NCATS), 2010)",
  "note": "The whole screen tested about 320,000 compounds, of which about 2,100 (0.66%) were called active. Inconclusive means that the source gave no clear call. Such entries were picked first, then a sample of the others. Calls follow the shape of the dose curve; as a rule, active = well fitted inhibition curve with a large enough effect in the signal ratio, with a control signal flat (not every such curve was filed as active); inconclusive = small, poorly fitted or top-dose-only effect, or effect the other way, or a change in a side signal; inactive = flat fitted curve, though single readings scatter; the % refers to the signal ratio. Where the call is inconclusive, the potency comes from a doubtful curve fit. % is scaled to controls: 0 for no effect and ±100 for the full control effect; potency is read from the fitted curve at half-maximal effect.",
  "data": [
    {"assay": "qHTS Assay for Lipid Storage Modulators in Drosophila S3 Cells", "conditions": "BODIPY lipid droplet fluorescence, 18-24 h, cells fed with added oleic acid; lipid storage change, negative = inhibition: at 46.1 µM (top of the series) unless noted", "summary_of_the_method": "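Laser-scanning cytometry quantifies lipid droplet accumulation (500–530 nm total intensity; droplet/cell object ratio) in oleic acid-fed (400 uM added) Drosophila S3 cells treated with a concentration series. 20 uM Triacsin C defined 100% inhibition.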", "values": [
      {"smiles": "O=C(Nc1cccc(F)c1)N1CCC(n2c(=O)[nH]c3ccccc32)CC1", "lipid storage change, negative = inhibition": "inconclusive: 37.5%"},
      {"smiles": "Cc1cc(OCC(=O)OCC(=O)N(C)C2CCS(=O)(=O)C2)ccc1Cl", "note": "(stereo not drawn)", "lipid storage change, negative = inhibition": "inconclusive"},
      {"smiles": "CCN(C(=O)CSc1nncn1-c1ccccc1)c1c(N)n(Cc2ccccc2)c(=O)[nH]c1=O", "lipid storage change, negative = inhibition": "inconclusive: -34.7%"},
      {"smiles": "Cc1cc(NC(=O)CCC(=O)N(CC(=O)NC2CCCC2)c2cccc(F)c2)no1", "Potency": "inconclusive: 1.84 µM [activator, partial curve]"},
      {"smiles": "O=c1[nH]cc(COCC(F)CCl)c(=O)[nH]1", "note": "(stereo not drawn)", "lipid storage change, negative = inhibition": "inconclusive: 11.4%"},
      {"smiles": "Cc1cc(C)cc(NC(=O)Nc2ccc3c(c2)N(C)C(=O)CS3)c1", "lipid storage change, negative = inhibition": "inconclusive: 98.5%"},
      {"smiles": "CCOC(=O)c1cccc(NS(=O)(=O)c2cnc[nH]2)c1", "Potency": "inconclusive: 29.1 µM [falling, single point]"},
      {"smiles": "Cc1ccc(-c2nnc(-c3cccnc3)o2)cc1", "lipid storage change, negative = inhibition": "inconclusive: -8%"},
      {"smiles": "Cc1ccc(C)c(N(C(=O)c2csnn2)C(C(=O)NC2CCCC2)c2cccnc2)c1", "note": "(stereo not drawn)", "Potency": "inconclusive: 0.366 µM [activator, partial curve, poor fit]"},
      {"smiles": "COc1ccc(NC(=O)CN(c2ccccc2F)S(=O)(=O)c2ccc(C)cc2)c(OC)c1", "Potency": "inconclusive: 18.4 µM [falling, partial curve]"},
      {"smiles": "Cc1nc(NCc2ccco2)nc2c1C(=O)CC(C)C2", "note": "(stereo not drawn)", "Potency": "inconclusive: 0.0046 µM [activator, full curve, poor fit]"},
      {"smiles": "O=C(N/N=C/c1sc(N2CCOCC2)nc1-c1ccccc1)c1ccccc1Cl", "lipid storage change, negative = inhibition": "inconclusive: -36.6%"},
      {"smiles": "CCOC(=O)CNC(=O)CSc1ncnc2c1cnn2-c1ccccc1", "lipid storage change, negative = inhibition": "inconclusive: -6.33%"},
      {"smiles": "CCCC(=O)N=C1SC2CS(=O)(=O)CC2N1c1ccc(-c2nc3ccc(C)cc3s2)cc1", "note": "(stereo not drawn)", "lipid storage change, negative = inhibition": "inconclusive: -18.8%"},
      {"smiles": "COc1cccc(NC(=O)CN(C)C(=O)CSc2ccc3c(c2)OCCO3)c1", "lipid storage change, negative = inhibition": "inactive: 18%"},
      {"smiles": "COc1cc(NC(=O)CCc2nnc3ccc(NCc4ccco4)nn23)cc(OC)c1", "Potency": "inconclusive: 29.1 µM [falling, single point]"},
      {"smiles": "O=c1oc(-c2ccccc2NS(=O)(=O)c2ccc3ccccc3c2)nc2ccccc12", "lipid storage change, negative = inhibition": "inconclusive: 6.07%"},
      {"smiles": "CCC1=C(OC(=O)N(CC)CC)N2C(=O)OC(=NCCc3c[nH]c4ccccc34)[C@]2(Cc2ccccc2)[C@H]2C1=CC[C@H]1C(=O)NC(=O)[C@H]12", "Potency": "inconclusive: 6.51 µM [falling, full curve, poor fit]"},
      {"smiles": "CC(=O)OC(C(=O)Nc1nccs1)c1ccccc1", "note": "(stereo not drawn)", "Potency": "inconclusive: 18.4 µM [activator, single point]"},
      {"smiles": "O=C1CC(N2CCN(C/C=C/c3ccccc3)CC2)C(=O)N1CCc1ccccc1", "note": "(stereo not drawn)", "Potency": "active: 3.26 µM"},
      {"smiles": "CC(C)c1cc(C(C)C)n2nc(N)nc2n1", "lipid storage change, negative = inhibition": "inconclusive: 2.08%"},
      {"smiles": "Cc1ccc(NC(=O)CN(C)C(=O)COC(=O)CCS(=O)(=O)c2ccc(C)cc2)cc1", "Potency": "inconclusive: 29.1 µM [falling, single point]"},
      {"smiles": "O=C(OC1CCOC1=O)c1ccc(CO)cc1", "note": "(stereo not drawn)", "lipid storage change, negative = inhibition": "inconclusive: 42.8%"},
      {"smiles": "CCOC(=O)c1cccc(OC(=O)CCNC(=O)c2ccc(Cl)cc2)c1", "Potency": "inconclusive: 10.3 µM [activator, partial curve]"},
      {"smiles": "O=C(CN1C(=O)S/C(=C/c2ccncc2)C1=O)N1CCOCC1", "lipid storage change, negative = inhibition": "inconclusive: -28.2%"},
      {"smiles": "O=C(CC1NC(=O)NC1=O)Nc1ccc(Cl)cc1", "note": "(stereo not drawn)", "lipid storage change, negative = inhibition": "inconclusive: 2.49%"},
      {"smiles": "O=C(O)CNC(=S)N(Cc1ccccc1)Cc1cccnc1", "Potency": "inconclusive: 0.103 µM [falling, full curve, poor fit]"},
      {"smiles": "Cc1cccc(NC(=O)CN2C(=O)CNC2=O)c1", "Potency": "inconclusive: 29.1 µM [falling, single point]"},
      {"smiles": "Cc1cc(NS(=O)(=O)c2ccc(NC(=O)NC(C)(C(F)(F)F)C(F)(F)F)cc2)no1", "Potency": "inconclusive: 6.51 µM [falling, single point]"},
      {"smiles": "COc1ccc(-c2nc(-c3ccccn3)no2)cc1", "lipid storage change, negative = inhibition": "inconclusive: 12.4%"},
      {"smiles": "COc1ccccc1CNC(=O)COc1cccc(-n2cnnn2)c1", "lipid storage change, negative = inhibition": "inconclusive: -17.1%"},
      {"smiles": "CC1CCCC(C)N1C(=O)COC(=O)CNC(=O)c1sc2ccccc2c1Cl", "note": "(stereo not drawn)", "lipid storage change, negative = inhibition": "inconclusive"},
      {"smiles": "O=C(CNC(=O)c1ccc(Cl)cc1Cl)OCc1nnc(-c2ccccc2)o1", "Potency": "inconclusive: 18.4 µM [activator, partial curve]"},
      {"smiles": "CC12CCC(=O)N1C(C(=O)Nc1cccc3ccccc13)CS2", "note": "(stereo not drawn)", "lipid storage change, negative = inhibition": "inconclusive: -20.3%"},
      {"smiles": "Cc1ccc2cc3cc(C(=O)NCCCN4CCCC4)oc3nc2c1", "lipid storage change, negative = inhibition": "inconclusive: -16.2%"},
      {"smiles": "CSc1nc(-c2ccccc2)nc(C(C)C)n1", "Potency": "inconclusive: 32.6 µM [activator, single point]"},
      {"smiles": "CN(CCN1CCOCC1)C(=O)c1cc(COc2ccc(F)c(F)c2)on1", "lipid storage change, negative = inhibition": "inconclusive: 56.6%"},
      {"smiles": "COCC(C)NC(=O)C1CCN(S(=O)(=O)c2ccc3ccccc3c2)CC1", "note": "(stereo not drawn)", "lipid storage change, negative = inhibition": "inconclusive: 9.83%"},
      {"smiles": "COc1ccc(-c2[nH]ncc2N=Nc2cc(C)cc(C)c2)cc1", "lipid storage change, negative = inhibition": "inconclusive: -23.1%"},
      {"smiles": "Cc1nc(-c2ccc(S(=O)(=O)N3CCCN(CCc4ccccc4)CC3)s2)cs1", "lipid storage change, negative = inhibition": "inconclusive: 15.9%"},
      {"smiles": "CN(Cc1c(O)ccc2c1oc(=O)c1ccccc12)C1CCCCC1", "Potency": "inconclusive: 29.1 µM [activator, single point]"},
      {"smiles": "COc1nnc(-c2ccc(C)c(S(=O)(=O)NC(C)(C)CO)c2)c2ccccc12", "Potency": "inconclusive: 3.66 µM [falling, single point]"},
      {"smiles": "CCn1ccc(C(=O)Nc2ccccc2SC)n1", "lipid storage change, negative = inhibition": "inconclusive: 49.8%"},
      {"smiles": "Cc1ccccc1C(OCCN(C)C)C1CCCCC1", "note": "(stereo not drawn)", "lipid storage change, negative = inhibition": "inconclusive: -10%"},
      {"smiles": "O=C(N/N=C/c1ccc(N2CCOCC2)s1)c1ccccc1Br", "lipid storage change, negative = inhibition": "inconclusive: 38.3%"},
      {"smiles": "Nc1nonc1N/N=C/c1c(O)ccc2ccccc12", "Potency": "inconclusive: 0.0046 µM [falling, full curve, poor fit]"},
      {"smiles": "O=C1CN(Cc2nc3cc(Cl)ccc3c(=O)[nH]2)CCN1", "lipid storage change, negative = inhibition": "inconclusive: -8.64%"},
      {"smiles": "CC(C)Oc1ccc(S(=O)(=O)N2CCOCC2)cc1NC(=O)c1ccc(N2CCCC2=O)cc1", "lipid storage change, negative = inhibition": "inconclusive: -6.08%"}
    ]}
  ]
}
